This passage reports growth estimate results from the supplement of paper PMC5949888.

Most values lie at the floor of the assay. Slopes are relative: functional sequences can read slightly below zero.

This series deals with Saccharomyces cerevisiae PS128 hsf1 delta, HSF1(1-493) fusion. Briefly: growth estimate (transactivation domain function in HSF1 fusion, heat-shock survival) (a.u. (slope of normalised read count over time)); higher = stronger growth at 37°C, i.e. more transactivation activity. As to conditions: library: random library. The method, then: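 Random 60-nt DNA library encoding peptides of up to 20 aa, fused to the C-terminus of yeast HSF1 residues 1-493 (C-terminal TAD deleted) and expressed from the native HSF1 promoter on a CEN plasmid in hsf1-deleted S. cerevisiae PS128. Cells were selected at 37°C on -trp 5-FOA plates for 0, 2, 4, 6 and 8 days and amplicons were sequenced. Growth estimate is the slope of a robust linear fit of total-sum-normalised read counts (normalised to the first time point) over time, using at least 2 replicates. Sequences are classed functional (TAD activity) above a threshold of -0.13, set from stop-codon control sequences.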
For HETCV, the growth estimate is < -0.25.
For TWKP the value was < -0.25; for YSMFYSYERQNIRLHGRLRT, < -0.25.
For the substance LSPGHWILPLQIGRCNGIFD, the growth estimate is < -0.25.
Turning to KQY, the growth estimate is < -0.25.
As to ACPHERGSADFIPPIADNDL, the growth estimate was < -0.25.
For AAGGRRATG the value was < -0.25.
As for APLSAPAGCGLRQTLNGRTV, the growth estimate is < -0.25.
Regarding KLSSGSLADREMGTPT, the growth estimate is < -0.25.
Regarding GLQGTERNGNCVGDIPGGTS, the growth estimate is < -0.25.
The value for EFISASRASFYNRFIKWFAS was < -0.25; that for RSREWPALRNALSRL was < -0.25.
The value for PNCLPVR was < -0.25; that for RHEEGIDPRVGLYVS was < -0.25.
The value for HPL was < -0.25.
Consider IFGGGKHVSMLRRPTRSTDA, for which the growth estimate was < -0.25.
The value for EGWAGKRYGVA was < -0.25; that for GLPISQWGTRAPVHPPLGGV was < -0.25; that for YCEGLGTVLLFASAHP was < -0.25.
Regarding HPSVRGFQGHIRTGSPSPVQ, the growth estimate was < -0.25.
For RRRITSARSPLIAIPDGLSG the value was < -0.25; for VHTLYAVLDTGAKPDLIRSY, < -0.25; for AVFRIQAEGGAGKIRDSLIV, < -0.25.
For KQGGRE the value was < -0.25; for NAE, -0.245.
On to PEGYVPPRLGFNFT, for which the growth estimate was -0.246.
The value for FQTHSSPVQKCSDASVKQPE was < -0.25; that for PHVLSPGFGDRYRSLSPFKF was < -0.25; that for SAGRGEAALGFVFFNAGVNQ was < -0.25.
QCRVRRVRLRSCPGSRSSVG: the growth estimate was < -0.25.
The value for RSPPAASRSAGWRRQGLGSV was < -0.25.
For PAKTLRITCTAVHNQG, the growth estimate is < -0.25.
Take SRSHPGLIPSSIEERFSGKG: the growth estimate is < -0.25.
For HRALSKMRSEGYKK the value was < -0.25.
For ANISQGIGGNAIPLQHQLEL the value was < -0.25.
As for VGLKSGSHITVADLVDRVFA, the growth estimate is < -0.25.
The value for DMRGSKRYPMKVSFYTCVNR was < -0.25; that for LHLRSVNTFRITARVVF was < -0.25.
In the case of YLASPHVTGSG, the growth estimate is < -0.25.
The value for LLPSRFPTGNLPLGCGKPPS was < -0.25; that for FKLKARGQRESGAMIAPLIP was < -0.25; that for YSLNSQSEGRFLLASSVLSN was < -0.25.
On to SSSKGRSWLVAWMKVNLRHR, for which the growth estimate is < -0.25.
The value for RSFYSI was < -0.25; that for TTAFYLGVAENANRWSGRSL was < -0.25; that for GLDACPL was < -0.25.
The value for ILQ was < -0.25; that for HEEAQHYLGRVTCTHLFSDT was < -0.25; that for DIATY was < -0.25.
The value for PHCS was < -0.25; that for GTDQSLHVFHDMCHRASESG was < -0.25.
As for RTAFR, the growth estimate was < -0.25.
The value for YGSLLSESRTLYASGTTCAP was < -0.25; that for YVEFRSSLPRYGKSLKSKVT was < -0.25.
For the substance RKSNASQLI, the growth estimate was < -0.25.
For VLPYFRLAWLNLVTRIVVRL the value was < -0.25; for RSHHAWC, < -0.25.
Turning to VMFEIRGTGRLDVCG, the growth estimate is < -0.25.
The value for RSCIFLRRFVTKI was < -0.25.
Regarding YCKRAKW, the growth estimate is < -0.25.
For the substance RGTDGN, the growth estimate was < -0.25.
On to NELR, for which the growth estimate was < -0.25.
With AAV, the growth estimate was < -0.25.
Regarding TQKCRSSGTRLFGVCSRLCC, the growth estimate is < -0.25.
As for NCVGFAIISG, the growth estimate is < -0.25.
For TEMVMNYIVLAQSLFSAFPE the value was < -0.25.
With LTRLCYPRT, the growth estimate is < -0.25.
The value for ITPSAT was < -0.25; that for QQENEGRHSEFIYIFAPMKF was < -0.25.
The value for VYQRAPCGGAR was < -0.25.
On to NCPGTKLSIVPML, for which the growth estimate was < -0.25.
The value for RRMNYF was < -0.25; that for MGRNAAATPMRRRRHPVKCG was < -0.25; that for LILRRLPAQLRPARRGHQHL was < -0.25.
For SKCPCPRTGDSL the value was < -0.25.
The value for LDTLRGRGARRFFVQRGAII was < -0.25.
Regarding HNNDRVTEGVFCHDS, the growth estimate is < -0.25.
For PVSLTLRTRLRSNASVASIW the value was < -0.25; for PLGNTTKTGEGIRIWSALSI, < -0.25.
For GLFPNHHETSLPDPFCLGHA the value was < -0.25; for RCTRLRGLVAVVCLGVA, < -0.25; for KRPLNRAQYKRLNLGSSIVL, < -0.25.
The value for WWPCG was < -0.25; that for ARASDGLCLFQGIWGLFTAA was < -0.25; that for MGNAANKGDSRPSGSQ was < -0.25.
CMGHCFIIALGFVPRSGRSD: the growth estimate is < -0.25.
As for IHDVRQRQAKIQVSL, the growth estimate is -0.248.
The value for SVFRQRSPW was < -0.25; that for LRTECGKCSLRISPIVLLRR was < -0.25.
As for TGSFY, the growth estimate is < -0.25.
For RSTDP the value was < -0.25; for CSPG, < -0.25; for IVLLLVPIRSASIPPKMATR, < -0.25.
The value for CEVTQFRCASGSHSVRQAFS was < -0.25.
For RGLNPCSVVTLPLNQGPSTA the value was < -0.25; for CFLGRRPRHYVRRIASTSLN, < -0.25.
On to GSYNLRGNSCTASVCGFGDP, for which the growth estimate was < -0.25.
With DQIYGASGSVKGHGGHPHYL, the growth estimate was -0.239.
The value for FPSGPCGCRDT was < -0.25.
For the substance YCEMGVLVETSAPPIRSVLL, the growth estimate was < -0.25.
Take RLTMPMNLDGCF: the growth estimate is < -0.25.
For QAWC the value was < -0.25; for ISIRPMFFSDGYTDYWVRAH, < -0.25.
Take SFPPPWVESGRIEGLRGCQG: the growth estimate is < -0.25.
The value for EPFLE was < -0.25; that for PFVVLMSSASPWV was -0.144.
For MGRSWCEGLG the value was < -0.25; for SRGRTGDSPTCISSAIRHSA, < -0.25; for KDRLQTFFGRSESFHRV, < -0.25.
For PIRRTIVVDQVDHRTRQEAL, the growth estimate is < -0.25.
On to VGPPQYSIGHEV, for which the growth estimate is < -0.25.
The value for GQFRCEMLEVSRYGVHSGAG was < -0.25.
For the substance MATTARTILTDSPLEV, the growth estimate is < -0.25.
Turning to FECIRWKAIIAFARAWLFPT, the growth estimate was < -0.25.
For GTRELQSKLRPW the value was < -0.25.
Consider CDPVSNRALTVVGLPVISNR, for which the growth estimate is < -0.25.
Regarding WESPSQVS, the growth estimate is < -0.25.
Consider EYGISAMQTT, for which the growth estimate was < -0.25.
Consider AHGQAL, for which the growth estimate was < -0.25.
Take APIVVCPSNGCYISDFRIPR: the growth estimate was < -0.25.
For QTHNEG the value was < -0.25; for SVKGVS, < -0.25.
For SIAFRGLGWLTDVPVRNHFS the value was < -0.25; for LCPYPNRTGLLRSKRPSPLE, < -0.25; for KIGSHAL, < -0.25.
In the case of VLWFTSITETSPLRVDENRS, the growth estimate was < -0.25.
PLGRSGWVWLLLDPARFT: the growth estimate is < -0.25.
The value for IRTFAYPSGRS was < -0.25; that for SDKPCSPRVRFHKVVKKSRY was < -0.25.
As for AVPLRAIIMVL, the growth estimate was < -0.25.
In the case of KVTEIGHQVTFPTR, the growth estimate is < -0.25.
For GPFPWHCTR the value was < -0.25; for CLIGAVCLPEEHRSVGTL, < -0.25.
Regarding TKYLRKSTVQFRVQSFPSAT, the growth estimate is < -0.25.
The value for ILITASEHLDYGISGQAPNV was < -0.25.
Consider LMVLAMGNGYERPASPRFVY, for which the growth estimate is < -0.25.
The value for PRWYLPPWLDTLYVPYRLTV was < -0.25; that for REEDAFRSLCLV was < -0.25; that for VGKIYRWAAPSTSTL was < -0.25.
The value for PSHL was < -0.25; that for SNAVC was < -0.25; that for PSRCLRGGCSVCLPVLYTHK was < -0.25.
For HELDLRCAGLVQYPRSNLDL the value was < -0.25; for KSGRKEDCRLTKKAKQRKTA, < -0.25; for NQACKRDRRKFLVPCPCRSV, < -0.25.
As for RDLLTFRRGIHFITSKTTPP, the growth estimate is < -0.25.
With LLAQTGRRVSAGEGFSLGEI, the growth estimate was < -0.25.
For SCNSDGTKPRPLSSFKGLVA the value was < -0.25; for NTILQAAYAQQAHSRCGLLL, < -0.25.
The value for ATICQVGHKGNGEIRQKPWC was < -0.25.
